Laboratory results from paper PMC9408947.
Results are given in words; binding and its absence hold for the method and conditions named. Binding seen in cells or lysates may run through a third protein. Some results given as binding are weak or reduced against the parent protein; the word gives no strength.

Sequences of proteins named here, by UniProt entry; tags and fusion partners are left off. A change or cut given only in a name is not applied to a line headed by its entry. A line that says so, or that is headed by a name, gives the form on record, which may keep a tag or linker. Residues count along the entry.
UniProt P05412: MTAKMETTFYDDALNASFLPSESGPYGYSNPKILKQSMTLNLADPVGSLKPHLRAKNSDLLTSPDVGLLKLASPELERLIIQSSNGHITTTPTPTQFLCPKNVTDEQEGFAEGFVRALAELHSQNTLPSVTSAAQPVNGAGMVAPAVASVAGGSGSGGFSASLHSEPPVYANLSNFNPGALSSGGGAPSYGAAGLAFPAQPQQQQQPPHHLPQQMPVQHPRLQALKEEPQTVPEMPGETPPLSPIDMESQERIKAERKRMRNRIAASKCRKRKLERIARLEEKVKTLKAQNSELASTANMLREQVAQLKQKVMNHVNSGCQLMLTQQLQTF
GRP78-NV (full-length GRP78 with N-Venus, BiFC construct) (P11021, residues 19-654): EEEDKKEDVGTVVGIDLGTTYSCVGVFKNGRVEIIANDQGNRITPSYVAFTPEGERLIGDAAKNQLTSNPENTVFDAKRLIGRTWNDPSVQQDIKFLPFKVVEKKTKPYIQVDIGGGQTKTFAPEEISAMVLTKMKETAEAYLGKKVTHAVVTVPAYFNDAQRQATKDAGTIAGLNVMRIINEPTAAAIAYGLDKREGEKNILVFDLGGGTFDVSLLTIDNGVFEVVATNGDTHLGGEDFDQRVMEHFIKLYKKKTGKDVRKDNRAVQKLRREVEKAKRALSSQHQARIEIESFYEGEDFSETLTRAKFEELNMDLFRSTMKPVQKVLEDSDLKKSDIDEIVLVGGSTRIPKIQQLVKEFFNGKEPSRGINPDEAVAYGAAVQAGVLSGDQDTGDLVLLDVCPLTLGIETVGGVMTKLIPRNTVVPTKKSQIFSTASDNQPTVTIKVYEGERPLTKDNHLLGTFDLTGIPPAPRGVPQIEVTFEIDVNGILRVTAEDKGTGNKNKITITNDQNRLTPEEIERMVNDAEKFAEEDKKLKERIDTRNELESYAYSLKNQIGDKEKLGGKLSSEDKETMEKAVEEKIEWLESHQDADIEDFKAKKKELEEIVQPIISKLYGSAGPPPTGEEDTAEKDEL
nucleotide-binding domain of GRP78 (BiFC construct) (P11021, form named): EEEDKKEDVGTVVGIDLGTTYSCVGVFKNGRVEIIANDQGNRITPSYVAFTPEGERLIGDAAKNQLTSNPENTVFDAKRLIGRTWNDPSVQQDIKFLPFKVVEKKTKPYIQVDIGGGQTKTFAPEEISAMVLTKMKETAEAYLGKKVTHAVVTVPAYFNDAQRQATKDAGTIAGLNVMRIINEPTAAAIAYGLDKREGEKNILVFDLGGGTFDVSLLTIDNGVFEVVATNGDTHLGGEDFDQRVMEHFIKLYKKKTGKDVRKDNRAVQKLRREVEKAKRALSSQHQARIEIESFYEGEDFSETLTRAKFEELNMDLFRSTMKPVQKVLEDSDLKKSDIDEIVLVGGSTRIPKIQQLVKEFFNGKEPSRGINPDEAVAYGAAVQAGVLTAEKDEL
UniProt P61244: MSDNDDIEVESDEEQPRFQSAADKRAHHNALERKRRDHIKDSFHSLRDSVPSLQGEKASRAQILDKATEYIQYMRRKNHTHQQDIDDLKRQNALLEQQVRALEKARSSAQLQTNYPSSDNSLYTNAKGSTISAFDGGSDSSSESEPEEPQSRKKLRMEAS
UniProt Q49AH0, residues 25-187: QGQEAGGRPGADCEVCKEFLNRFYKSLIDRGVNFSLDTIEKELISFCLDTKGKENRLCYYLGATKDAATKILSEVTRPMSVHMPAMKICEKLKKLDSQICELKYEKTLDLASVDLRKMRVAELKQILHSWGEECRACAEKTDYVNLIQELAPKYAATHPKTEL

Experiments:
Test in all cases: split reporter; split Venus BiFC; HEK293 cells co-transfected with pEZY BiFC N-Venus and C-Venus plasmids, fixed 20-24 h after transfection, confocal microscopy
[1] = target: Jun-NV (transcription factor Jun with N-Venus, BiFC construct) (UniProt P05412)
[2] = target: GRP78-NV (full-length GRP78 with N-Venus, BiFC construct) (UniProt P11021)
[3] = target: nucleotide-binding domain of GRP78 (BiFC construct) (UniProt P11021)
[4] = target: T1, GRP170-CV (GRP170 with C-Venus, BiFC construct) (UniProt Q9Y4L1)
T1 sequence: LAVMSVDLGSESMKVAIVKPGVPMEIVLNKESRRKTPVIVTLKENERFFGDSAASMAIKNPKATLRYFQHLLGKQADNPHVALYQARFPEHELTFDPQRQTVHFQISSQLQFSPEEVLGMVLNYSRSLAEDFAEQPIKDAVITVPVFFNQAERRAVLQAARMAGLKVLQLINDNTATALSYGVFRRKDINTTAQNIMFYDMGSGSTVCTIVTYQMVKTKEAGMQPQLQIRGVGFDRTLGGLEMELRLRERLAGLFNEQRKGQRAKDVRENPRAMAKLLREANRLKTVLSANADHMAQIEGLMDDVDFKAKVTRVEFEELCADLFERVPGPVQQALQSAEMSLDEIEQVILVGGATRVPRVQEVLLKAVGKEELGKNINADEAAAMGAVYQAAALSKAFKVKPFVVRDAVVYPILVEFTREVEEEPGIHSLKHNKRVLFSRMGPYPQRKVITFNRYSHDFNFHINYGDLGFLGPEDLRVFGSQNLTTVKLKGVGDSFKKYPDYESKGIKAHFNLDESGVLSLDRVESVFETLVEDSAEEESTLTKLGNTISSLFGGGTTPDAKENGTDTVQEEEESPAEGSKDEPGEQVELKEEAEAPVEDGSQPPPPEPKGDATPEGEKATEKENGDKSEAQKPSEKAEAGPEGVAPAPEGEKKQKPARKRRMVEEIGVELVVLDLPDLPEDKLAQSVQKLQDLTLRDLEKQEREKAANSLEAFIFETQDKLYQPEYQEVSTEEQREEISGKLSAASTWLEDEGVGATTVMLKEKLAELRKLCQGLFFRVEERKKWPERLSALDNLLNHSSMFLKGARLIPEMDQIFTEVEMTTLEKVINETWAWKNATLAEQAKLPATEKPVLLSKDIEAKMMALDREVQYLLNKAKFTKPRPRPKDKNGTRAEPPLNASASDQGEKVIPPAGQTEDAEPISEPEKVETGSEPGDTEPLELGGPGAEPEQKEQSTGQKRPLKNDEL

Max-CV (transcription factor Max with C-Venus, BiFC construct) (from UniProt P61244 1-160)
binding [1]: no binding

pre-CV-CDNF (full-length CDNF with C-Venus, BiFC construct) (from UniProt Q49AH0 25-187)
binding [2]: binds | binding [3]: binds

pre-NV-CDNF (full-length CDNF with N-Venus, BiFC construct) (from UniProt Q49AH0 25-187)
binding [4]: binds

B1: GRP170-CV (GRP170 with C-Venus, BiFC construct) (protein, UniProt Q9Y4L1 33-999)
chain: T1 sequence
binding [2]: binds
